# Literature values as cited in US9193884B2, “Ink composition” (Hewlett-Packard Development Company, L.P., priority 2011, dated 2015).
# At least one compound was matched to its structure with a doubt left.
# Settings: cited from earlier work
smiles,measurement,value
"[Li] [Li, lithium]",Radius of hydrated ion,3.40 Å
